The M2OR odorant receptor database
This is a selection; strong and weak results do not stand in their true shares. Calls are pooled over several reports, among them a noisy single-well screen. The list shows a part of the results.

How the values were obtained:
Settings in all cases: stereoisomer not certain
OR10C1 (Homo sapiens) = molecular target: T1, OR10C1 (Homo sapiens) (UniProt Q96KK4)
T1 sequence (whole entry): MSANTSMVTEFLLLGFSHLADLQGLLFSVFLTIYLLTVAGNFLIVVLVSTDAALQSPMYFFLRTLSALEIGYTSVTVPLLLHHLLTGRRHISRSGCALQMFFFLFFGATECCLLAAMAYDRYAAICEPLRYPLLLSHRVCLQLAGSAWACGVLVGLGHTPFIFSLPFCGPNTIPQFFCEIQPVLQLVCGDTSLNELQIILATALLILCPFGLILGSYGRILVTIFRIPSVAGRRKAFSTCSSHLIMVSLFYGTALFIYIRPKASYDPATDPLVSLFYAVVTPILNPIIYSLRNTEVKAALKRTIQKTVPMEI
Outline: (§1)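 Whether a receptor–molecule pair is responsive (active) rests on the original authors' judgment that its measured signal was statistically different from baseline. Pairs without that judgment are non-responsive (inactive). Sources used varied assay methods, commonly transient luciferase assays in mammalian cell lines.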

OR10G6 (Homo sapiens) = molecular target: T2, OR10G6 (Homo sapiens) (UniProt Q8NH81)
T2 sequence (whole entry): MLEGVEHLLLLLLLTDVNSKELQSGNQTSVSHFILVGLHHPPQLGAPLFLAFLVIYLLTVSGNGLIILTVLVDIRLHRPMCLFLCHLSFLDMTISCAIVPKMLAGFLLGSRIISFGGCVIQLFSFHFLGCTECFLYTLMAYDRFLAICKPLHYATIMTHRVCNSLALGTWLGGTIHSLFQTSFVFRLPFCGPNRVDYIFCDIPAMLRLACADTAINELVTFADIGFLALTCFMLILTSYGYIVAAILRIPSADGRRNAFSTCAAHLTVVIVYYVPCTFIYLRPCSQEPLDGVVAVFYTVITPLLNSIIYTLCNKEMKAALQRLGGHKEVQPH
Outline: as §1

OR10G7 (Homo sapiens) = molecular target: T3, OR10G7 (Homo sapiens) (UniProt Q8NGN6)
T3 sequence (whole entry): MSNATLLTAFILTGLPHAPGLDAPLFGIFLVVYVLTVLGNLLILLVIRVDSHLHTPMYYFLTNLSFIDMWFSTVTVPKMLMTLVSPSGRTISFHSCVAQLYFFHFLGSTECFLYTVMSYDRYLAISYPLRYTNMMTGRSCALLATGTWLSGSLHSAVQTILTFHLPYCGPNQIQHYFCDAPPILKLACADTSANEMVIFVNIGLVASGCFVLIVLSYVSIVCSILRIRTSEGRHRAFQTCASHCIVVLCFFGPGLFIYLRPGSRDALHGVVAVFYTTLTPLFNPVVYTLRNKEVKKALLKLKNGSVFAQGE
Outline: as §1

OR10G8 (Homo sapiens) = molecular target: T4, OR10G8 (Homo sapiens) (UniProt Q8NGN5)
T4 sequence (whole entry): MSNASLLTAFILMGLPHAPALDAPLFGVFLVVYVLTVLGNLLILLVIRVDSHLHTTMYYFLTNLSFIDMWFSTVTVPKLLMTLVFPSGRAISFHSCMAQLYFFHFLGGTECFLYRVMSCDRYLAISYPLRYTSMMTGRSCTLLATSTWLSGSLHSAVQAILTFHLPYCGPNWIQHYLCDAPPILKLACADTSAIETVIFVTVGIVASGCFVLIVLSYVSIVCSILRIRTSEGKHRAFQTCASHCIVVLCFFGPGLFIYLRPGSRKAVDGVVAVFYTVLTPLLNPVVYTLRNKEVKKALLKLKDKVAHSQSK
Outline: as §1

OR10H1 (Homo sapiens) = molecular target: T5, OR10H1 (Homo sapiens) (UniProt Q9Y4A9)
T5 sequence (whole entry): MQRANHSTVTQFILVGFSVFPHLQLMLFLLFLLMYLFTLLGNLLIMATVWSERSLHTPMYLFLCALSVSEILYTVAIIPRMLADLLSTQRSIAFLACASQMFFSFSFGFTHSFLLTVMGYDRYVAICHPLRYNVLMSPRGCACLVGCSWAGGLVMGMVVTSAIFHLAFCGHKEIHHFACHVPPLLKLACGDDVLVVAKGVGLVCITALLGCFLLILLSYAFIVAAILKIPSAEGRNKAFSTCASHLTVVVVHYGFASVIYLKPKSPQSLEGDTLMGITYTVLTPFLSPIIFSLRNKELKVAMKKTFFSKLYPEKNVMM
Outline: as §1

OR10H3 (Homo sapiens) = molecular target: T6, OR10H3 (Homo sapiens) (UniProt O60404)
T6 sequence (whole entry): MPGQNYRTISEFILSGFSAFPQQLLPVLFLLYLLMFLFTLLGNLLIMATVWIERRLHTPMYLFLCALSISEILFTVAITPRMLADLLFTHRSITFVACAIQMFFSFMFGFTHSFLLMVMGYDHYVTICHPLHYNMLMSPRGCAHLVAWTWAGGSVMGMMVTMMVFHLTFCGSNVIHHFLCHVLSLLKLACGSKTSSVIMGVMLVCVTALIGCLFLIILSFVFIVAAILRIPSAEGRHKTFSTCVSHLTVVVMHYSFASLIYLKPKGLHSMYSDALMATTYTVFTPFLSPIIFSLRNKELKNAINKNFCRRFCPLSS
Outline: as §1

OR10H4 (Homo sapiens) = molecular target: T7, OR10H4 (Homo sapiens) (UniProt Q8NGA5)
T7 sequence (whole entry): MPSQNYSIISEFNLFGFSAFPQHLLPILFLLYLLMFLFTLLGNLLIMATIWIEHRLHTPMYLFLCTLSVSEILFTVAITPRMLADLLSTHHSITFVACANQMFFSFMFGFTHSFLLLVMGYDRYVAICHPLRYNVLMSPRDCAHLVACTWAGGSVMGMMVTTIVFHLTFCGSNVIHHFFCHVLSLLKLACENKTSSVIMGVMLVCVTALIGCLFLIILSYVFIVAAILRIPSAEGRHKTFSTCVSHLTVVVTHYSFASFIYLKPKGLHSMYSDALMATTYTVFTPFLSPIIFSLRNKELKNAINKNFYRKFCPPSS
Outline: as §1

OR10J5 (Homo sapiens) = molecular target: T8, OR10J5 (Homo sapiens) (UniProt Q8NHC4)
T8 sequence (whole entry): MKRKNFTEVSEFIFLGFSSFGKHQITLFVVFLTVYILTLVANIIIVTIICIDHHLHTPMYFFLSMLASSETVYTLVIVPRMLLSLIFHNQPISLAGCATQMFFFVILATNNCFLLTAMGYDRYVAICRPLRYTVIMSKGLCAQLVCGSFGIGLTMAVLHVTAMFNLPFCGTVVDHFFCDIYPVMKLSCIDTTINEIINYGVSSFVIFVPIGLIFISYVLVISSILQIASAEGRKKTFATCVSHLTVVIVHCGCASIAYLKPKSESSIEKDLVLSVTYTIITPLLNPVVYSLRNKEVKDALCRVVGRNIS
Outline: as §1

OR10K1 (Homo sapiens) = molecular target: T9, OR10K1 (Homo sapiens) (UniProt Q8NGX5)
T9 sequence (whole entry): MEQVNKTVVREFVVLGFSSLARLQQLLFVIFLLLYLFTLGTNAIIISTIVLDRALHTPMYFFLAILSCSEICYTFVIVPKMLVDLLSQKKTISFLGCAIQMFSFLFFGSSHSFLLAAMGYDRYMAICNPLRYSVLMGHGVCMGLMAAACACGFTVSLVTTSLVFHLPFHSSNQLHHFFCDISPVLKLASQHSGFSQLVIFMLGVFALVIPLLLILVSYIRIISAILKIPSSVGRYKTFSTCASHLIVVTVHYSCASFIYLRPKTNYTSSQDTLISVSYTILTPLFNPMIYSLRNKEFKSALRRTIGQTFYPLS
Outline: as §1

OR10K2 (Homo sapiens) = molecular target: T10, OR10K2 (Homo sapiens) (UniProt Q6IF99)
T10 sequence (whole entry): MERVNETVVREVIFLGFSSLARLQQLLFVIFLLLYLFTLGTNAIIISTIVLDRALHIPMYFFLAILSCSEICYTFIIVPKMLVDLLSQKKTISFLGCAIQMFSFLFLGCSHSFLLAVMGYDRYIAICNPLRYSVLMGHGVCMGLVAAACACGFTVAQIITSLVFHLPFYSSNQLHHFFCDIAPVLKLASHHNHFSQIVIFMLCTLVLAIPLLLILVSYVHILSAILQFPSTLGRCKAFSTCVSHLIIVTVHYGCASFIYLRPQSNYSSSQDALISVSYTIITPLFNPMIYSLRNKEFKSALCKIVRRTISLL
Outline: as §1

Measured: odorant receptor agonist call

CS
active: OR10G7 (Homo sapiens)
inactive: all other assays above
